Literature values, collected in patent US20200399308A1, “COMPOUNDS AND METHODS FOR ELICITING ANTIMICROBIAL ACTIVITY” (Technion Research & Development Foundation Limited, priority 2018, published 2020).
Some results were stated once for a whole list of compounds, not compound by compound. At least one compound was matched to its structure with a doubt left.

Tested on: Escherichia coli 25922
Conditions: as reported elsewhere; cited from earlier work

SMILES: O=C(O)c1cn(C2CC2)c2cc(N3CCNCC3)c(F)cc2c1=O [ciprofloxacin]
- survival frequency typically obtained in this infection model: 80-100%

SMILES: C[C@@H](O)[C@H]1C(=O)N2C(C(=O)O)=C(SCCN=CN)C[C@H]12 [imipenem]
- survival frequency typically obtained in this infection model: 80-100%
